The entries are a selection whose mix differs from that of the whole data set. At the low end of the ranking the order means little.
Assays:
Experiment in all cases: DAPPL (digital affinity profiling via proximity ligation, sequencing)
Conditions in all cases: 10 mM Tris-HCl pH 7.5, 50 mM NaCl, 1 mM DTT, 4% glycerol, room temperature, 30 min; GST-TFs on glutathione beads, 16-mer random dsDNA library, 0.1% …; high values mean tight binding; double strand, one strand shown; scale: fold enrichment (6-mer frequency, TF over GST control)
ELK1 = molecular target: T1, ELK1 (UniProt P19419)
T1 sequence: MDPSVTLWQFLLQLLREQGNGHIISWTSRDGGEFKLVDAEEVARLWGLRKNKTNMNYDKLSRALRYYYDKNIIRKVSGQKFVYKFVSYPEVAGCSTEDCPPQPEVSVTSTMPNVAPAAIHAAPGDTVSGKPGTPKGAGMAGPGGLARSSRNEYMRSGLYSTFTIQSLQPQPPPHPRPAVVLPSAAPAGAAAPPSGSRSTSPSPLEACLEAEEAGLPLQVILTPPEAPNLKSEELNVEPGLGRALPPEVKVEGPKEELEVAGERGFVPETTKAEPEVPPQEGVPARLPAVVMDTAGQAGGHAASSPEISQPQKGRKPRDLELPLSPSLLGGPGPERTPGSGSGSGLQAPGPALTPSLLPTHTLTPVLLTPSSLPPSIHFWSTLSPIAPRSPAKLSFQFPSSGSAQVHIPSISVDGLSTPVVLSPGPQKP

ELK3 = molecular target: T2, ELK3 (UniProt P41970)
T2 sequence: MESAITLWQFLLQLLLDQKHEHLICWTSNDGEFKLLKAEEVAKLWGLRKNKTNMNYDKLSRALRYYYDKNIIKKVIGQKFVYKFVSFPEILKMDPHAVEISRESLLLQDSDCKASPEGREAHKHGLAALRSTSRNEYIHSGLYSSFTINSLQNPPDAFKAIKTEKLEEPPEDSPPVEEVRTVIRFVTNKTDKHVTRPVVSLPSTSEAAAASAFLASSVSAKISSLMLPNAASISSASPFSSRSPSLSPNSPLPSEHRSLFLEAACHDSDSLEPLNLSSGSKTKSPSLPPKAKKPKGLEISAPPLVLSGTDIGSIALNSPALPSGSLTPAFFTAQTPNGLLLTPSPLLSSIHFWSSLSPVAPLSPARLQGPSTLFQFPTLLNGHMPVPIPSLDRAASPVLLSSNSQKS

SPIC = molecular target: T3, SPIC (UniProt Q8N5J4)
T3 sequence: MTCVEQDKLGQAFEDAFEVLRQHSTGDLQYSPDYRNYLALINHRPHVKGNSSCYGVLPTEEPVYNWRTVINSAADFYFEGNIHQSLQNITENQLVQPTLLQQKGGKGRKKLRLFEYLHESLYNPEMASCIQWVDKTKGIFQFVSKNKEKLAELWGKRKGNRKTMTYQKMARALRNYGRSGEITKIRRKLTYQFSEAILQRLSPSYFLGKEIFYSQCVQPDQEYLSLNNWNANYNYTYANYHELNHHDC

ETS2 = molecular target: T4, ETS2 (UniProt P15036)
T4 sequence: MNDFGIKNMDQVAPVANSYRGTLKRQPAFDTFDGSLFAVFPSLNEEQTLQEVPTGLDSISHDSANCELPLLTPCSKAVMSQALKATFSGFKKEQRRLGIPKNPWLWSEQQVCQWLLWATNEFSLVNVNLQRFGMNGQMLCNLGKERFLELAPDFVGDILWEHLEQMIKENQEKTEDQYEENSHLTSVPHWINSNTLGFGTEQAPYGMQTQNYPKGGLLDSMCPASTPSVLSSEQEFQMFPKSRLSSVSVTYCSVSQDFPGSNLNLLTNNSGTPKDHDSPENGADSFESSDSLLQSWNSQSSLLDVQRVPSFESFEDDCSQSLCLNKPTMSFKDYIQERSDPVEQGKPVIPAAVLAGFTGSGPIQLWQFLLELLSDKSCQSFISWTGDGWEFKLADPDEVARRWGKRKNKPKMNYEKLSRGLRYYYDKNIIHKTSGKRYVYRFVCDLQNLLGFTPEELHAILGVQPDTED

ETV3 = molecular target: T5, ETV3 (UniProt P41162-2)
T5 sequence: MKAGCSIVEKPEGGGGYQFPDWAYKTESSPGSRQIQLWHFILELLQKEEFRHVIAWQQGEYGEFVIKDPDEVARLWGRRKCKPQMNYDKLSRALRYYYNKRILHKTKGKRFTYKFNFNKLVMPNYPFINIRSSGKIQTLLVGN

Sequence | binding signal (ELK1) | binding signal (ELK3) | binding signal (SPIC) | binding signal (ETS2) | binding signal (ETV3)
ACGTCG | 0.677 | 0.622 | 0.538 | 0.628 | 0.649
AGGGGT | 0.733 | 0.954 | 0.824 | 0.813 | 0.796
TCGGAT | 0.447 | 0.504 | 0.6 | 0.531 | 0.498
AGTCTA | 0.728 | 0.692 | 0.776 | 0.75 | 0.708
AAAGTG | 0.939 | 0.953 | 0.798 | 0.902 | 0.902
GCGGGC | 0.763 | 0.795 | 0.8 | 0.775 | 0.789
CGGGTA | 0.72 | 0.793 | 0.666 | 0.852 | 0.871
GCATAA | 0.854 | 0.769 | 0.78 | 0.87 | 0.794
AGGCCG | 0.49 | 0.497 | 0.473 | 0.5 | 0.496
GGAGGC | 0.23 | 0.265 | 0.245 | 0.245 | 0.258
CGGTAG | 0.713 | 0.692 | 0.79 | 0.703 | 0.774
CAGGTT | 0.719 | 0.737 | 0.708 | 0.698 | 0.722
ACCAGC | 0.846 | 0.874 | 0.824 | 0.917 | 0.867
TCGGGA | 0.402 | 0.455 | 0.384 | 0.38 | 0.39
TAAGTG | 0.721 | 0.853 | 0.942 | 0.766 | 0.789
AGTGGG | 0.644 | 0.622 | 0.759 | 0.67 | 0.628
GAGCTA | 0.954 | 0.837 | 0.908 | 0.882 | 0.896
AGGCTG | 0.661 | 0.642 | 0.644 | 0.695 | 0.64
GGTCAA | 0.898 | 0.91 | 0.812 | 0.949 | 0.948
GCATCG | 0.835 | 0.767 | 0.842 | 0.802 | 0.789
CAATCG | 0.853 | 0.933 | 1.03 | 0.914 | 0.9
GCAGAC | 0.723 | 0.636 | 0.681 | 0.742 | 0.712
CCGGGG | 0.81 | 0.728 | 0.849 | 0.764 | 0.766
AGAGTG | 0.621 | 0.673 | 0.495 | 0.598 | 0.58
TAGCCA | 0.832 | 0.919 | 0.866 | 0.825 | 0.809
GGCACG | 0.833 | 0.882 | 0.806 | 0.786 | 0.846
ACCAGA | 0.884 | 0.928 | 0.922 | 0.859 | 0.834
TTGTCG | 0.842 | 0.801 | 0.84 | 0.81 | 0.798

14 consecutive records out of the list so far:
Sequence | binding signal (ELK1) | binding signal (ELK3) | binding signal (SPIC) | binding signal (ETS2) | binding signal (ETV3)
TCGGAT | 0.447 | 0.504 | 0.6 | 0.531 | 0.498
AGTCTA | 0.728 | 0.692 | 0.776 | 0.75 | 0.708
AAAGTG | 0.939 | 0.953 | 0.798 | 0.902 | 0.902
GCGGGC | 0.763 | 0.795 | 0.8 | 0.775 | 0.789
CGGGTA | 0.72 | 0.793 | 0.666 | 0.852 | 0.871
GCATAA | 0.854 | 0.769 | 0.78 | 0.87 | 0.794
AGGCCG | 0.49 | 0.497 | 0.473 | 0.5 | 0.496
GGAGGC | 0.23 | 0.265 | 0.245 | 0.245 | 0.258
CGGTAG | 0.713 | 0.692 | 0.79 | 0.703 | 0.774
CAGGTT | 0.719 | 0.737 | 0.708 | 0.698 | 0.722
ACCAGC | 0.846 | 0.874 | 0.824 | 0.917 | 0.867
TCGGGA | 0.402 | 0.455 | 0.384 | 0.38 | 0.39
TAAGTG | 0.721 | 0.853 | 0.942 | 0.766 | 0.789
AGTGGG | 0.644 | 0.622 | 0.759 | 0.67 | 0.628

(further entries)

Sequence | binding signal (ELK1) | binding signal (ELK3) | binding signal (SPIC) | binding signal (ETS2) | binding signal (ETV3)
GTCAGC | 0.784 | 0.767 | 0.726 | 0.726 | 0.659
CGCGAG | 0.522 | 0.548 | 0.534 | 0.477 | 0.513
GCGTGA | 0.269 | 0.276 | 0.247 | 0.263 | 0.272
AGTCGG | 0.146 | 0.157 | 0.181 | 0.144 | 0.149
GGTTGC | 0.956 | 0.969 | 0.982 | 0.892 | 0.939
TGCGTG | 0.729 | 0.639 | 0.568 | 0.614 | 0.627
AGTTGA | 0.765 | 0.767 | 0.846 | 0.765 | 0.776
GCAAGT | 0.809 | 0.896 | 0.728 | 0.877 | 0.856
AGGGTG | 0.747 | 0.708 | 0.791 | 0.74 | 0.756
GTAGTG | 0.829 | 0.817 | 0.763 | 0.828 | 0.872
GGCCAC | 0.959 | 0.871 | 0.993 | 1 | 0.916
GTCAGG | 0.534 | 0.54 | 0.544 | 0.54 | 0.525
CGGACG | 0.433 | 0.46 | 0.343 | 0.454 | 0.46
GGGACC | 0.729 | 0.649 | 0.643 | 0.65 | 0.631
CAGTCA | 0.474 | 0.488 | 0.426 | 0.497 | 0.492
TGGGAG | 0.407 | 0.422 | 0.575 | 0.406 | 0.425
GAGTTA | 0.603 | 0.544 | 0.616 | 0.6 | 0.603
AGTAGA | 0.771 | 0.738 | 0.805 | 0.793 | 0.749
AGACCA | 0.668 | 0.596 | 0.659 | 0.658 | 0.612
CGGCCA | 0.825 | 0.741 | 0.726 | 0.73 | 0.828
GCGGCG | 0.801 | 0.798 | 0.788 | 0.719 | 0.71
GGTCGG | 0.273 | 0.303 | 0.28 | 0.283 | 0.259
GCGCTG | 0.726 | 0.772 | 0.861 | 0.98 | 0.812
GCGCGA | 0.695 | 0.806 | 0.796 | 0.695 | 0.703
GAGCGT | 0.363 | 0.361 | 0.312 | 0.319 | 0.346
AGCCAT | 0.847 | 0.899 | 0.859 | 0.9 | 0.852
CAGGGG | 0.596 | 0.545 | 0.469 | 0.586 | 0.528

From PMC7862700
